No constants are given. Whether binding was seen depends on the method and setting. Binding seen in cells or lysates may run through a third protein. Binding can be weak; no strength is given. Tags and fused reporters may be left off the sequences shown.
Molecular target: T1, FLAG-AP-1-2-beta (β-adaptin) (Drosophila melanogaster) (UniProt Q24253)
T1 sequence: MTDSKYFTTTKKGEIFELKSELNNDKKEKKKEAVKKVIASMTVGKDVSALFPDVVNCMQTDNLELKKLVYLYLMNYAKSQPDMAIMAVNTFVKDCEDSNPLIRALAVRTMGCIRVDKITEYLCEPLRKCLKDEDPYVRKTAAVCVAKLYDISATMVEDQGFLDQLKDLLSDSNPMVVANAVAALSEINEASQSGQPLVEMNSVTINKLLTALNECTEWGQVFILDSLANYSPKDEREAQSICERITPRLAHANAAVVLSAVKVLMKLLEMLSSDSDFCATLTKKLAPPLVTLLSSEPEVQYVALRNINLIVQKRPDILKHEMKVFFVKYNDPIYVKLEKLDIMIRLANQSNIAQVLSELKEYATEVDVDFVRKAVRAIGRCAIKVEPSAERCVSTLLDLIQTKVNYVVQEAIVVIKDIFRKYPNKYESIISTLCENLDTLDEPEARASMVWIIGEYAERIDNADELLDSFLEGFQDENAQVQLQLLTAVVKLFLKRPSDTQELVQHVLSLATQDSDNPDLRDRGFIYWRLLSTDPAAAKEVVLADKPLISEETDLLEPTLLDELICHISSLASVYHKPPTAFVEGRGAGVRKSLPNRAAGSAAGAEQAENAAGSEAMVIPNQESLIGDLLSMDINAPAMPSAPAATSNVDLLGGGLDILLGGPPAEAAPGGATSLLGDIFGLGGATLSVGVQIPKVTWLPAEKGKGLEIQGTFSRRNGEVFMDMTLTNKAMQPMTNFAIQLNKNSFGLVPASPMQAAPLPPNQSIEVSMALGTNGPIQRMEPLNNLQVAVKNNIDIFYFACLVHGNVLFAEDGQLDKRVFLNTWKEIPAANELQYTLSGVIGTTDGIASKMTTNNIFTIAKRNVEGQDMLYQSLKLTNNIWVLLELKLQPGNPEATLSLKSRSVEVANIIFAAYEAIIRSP
Assay: co-IP; S2* cells cotransfected with pAGW-Bub1 and pAFW-AP-1-2-beta, 72 h, then with or without DCV (MOI 100, 1 h, 28°C); anti-FLAG immunoprecipitation, anti-GFP blot; also after the Bub1 kinase inhibitor 2OH-BNPP1 (Fig. S6B)

GFP-Bub1 fusion protein (Drosophila budding uninhibited by benzimidazoles 1) (from UniProt Q7K0Y3)
binding: binds

Source: PMC6146689
